PubChem BioAssay AID1259405 | NCATS, 2018

Test: 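Knock-downs that lift recombinant protein yield in hamster ovary cells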 (primary screen)
System: Chinese hamster CHO-K1 ovary cells with stable secreted eGFP expression
Reagents: single siRNA against mouse genes, 0.8 pmol siRNA per well (2 µl of 400 nM stock)
Timing: 3 days
Detection: 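Per-well intracellular GFP measured by laser scanning cytometry, plus viability from ATP luminescence, each relative to plate median of non-targeting control wells, in %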
Direction: GFP, % of control: higher = more GFP per well, higher productivity; viability (ATP), % of control: higher = more viable cells (more ATP)
Hit rule: 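Called active when intracellular GFP, relative to negative control, is at or above 120%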
Here is one part, drawn at random, of about 50,000 reagents tested. About 4,000 of them (8%) were called active. 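Mouse siRNA library applied to hamster cells; one well for each siRNA.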 Reagents against one gene are numbered here.

| gene symbol | siRNA no. | GFP, % of control | viability (ATP), % of control | call |
| --- | --- | --- | --- | --- |
| Ric8a (RIC8 guanine nucleotide exchange factor A) | 1 | 64 | 65.6 | inactive |
| Ric8a (RIC8 guanine nucleotide exchange factor A) | 2 | 54.1 | 41.1 | inactive |
| Ric8a (RIC8 guanine nucleotide exchange factor A) | 3 | 76.6 | 74.8 | inactive |
| Iqcj (IQ motif containing J) | 1 | 92.8 | 99.7 | inactive |
| Iqcj (IQ motif containing J) | 2 | 130 | 74.3 | active |
| Iqcj (IQ motif containing J) | 3 | 107 | 84.4 | inactive |
| Or2t44 (olfactory receptor family 2 subfamily T member 44) | 1 | 72.7 | 61.2 | inactive |
| Or2t44 (olfactory receptor family 2 subfamily T member 44) | 2 | 95 | 62 | inactive |
| Or2t44 (olfactory receptor family 2 subfamily T member 44) | 3 | 37.5 | 88.3 | inactive |
| Acsf2 (acyl-CoA synthetase family member 2) | 1 | 103 | 89.9 | inactive |
| Acsf2 (acyl-CoA synthetase family member 2) | 2 | 62.5 | 81.9 | inactive |
| Acsf2 (acyl-CoA synthetase family member 2) | 3 | 111 | 49 | inactive |
| Tspan11 (tetraspanin 11) | 1 | 85.7 | 68.3 | inactive |
| Tspan11 (tetraspanin 11) | 2 | 85.2 | 80.8 | inactive |
| Tspan11 (tetraspanin 11) | 3 | 70.8 | 74 | inactive |
| Or10ak13 (olfactory receptor family 10 subfamily AK member 13) | 1 | 75.4 | 79.1 | inactive |
| Or10ak13 (olfactory receptor family 10 subfamily AK member 13) | 2 | 53.9 | 75.6 | inactive |
| Or10ak13 (olfactory receptor family 10 subfamily AK member 13) | 3 | 58.9 | 37.2 | inactive |
| Pde5a (phosphodiesterase 5A, cGMP-specific) | 1 | 91.3 | 74.9 | inactive |
| Pde5a (phosphodiesterase 5A, cGMP-specific) | 2 | 76.1 | 52.7 | inactive |
| Pde5a (phosphodiesterase 5A, cGMP-specific) | 3 | 61.6 | 74.5 | inactive |
| Hapln1 (hyaluronan and proteoglycan link protein 1) | 1 | 26.7 | 33.7 | inactive |
| Hapln1 (hyaluronan and proteoglycan link protein 1) | 2 | 74.4 | 48 | inactive |
| Hapln1 (hyaluronan and proteoglycan link protein 1) | 3 | 59.3 | 68.4 | inactive |
| D8Ertd738e (DNA segment, Chr 8, ERATO Doi 738, expressed) | 1 | 77 | 82.9 | inactive |
| D8Ertd738e (DNA segment, Chr 8, ERATO Doi 738, expressed) | 2 | 145 | 109 | active |
| D8Ertd738e (DNA segment, Chr 8, ERATO Doi 738, expressed) | 3 | 136 | 89.7 | active |
| Prkaa2 (protein kinase, AMP-activated, alpha 2 catalytic subunit) | 1 | 124 | 64.1 | active |
| Or5k3 (olfactory receptor family 5 subfamily K member 3) | 1 | 79.9 | 72.8 | inactive |
| Or5k3 (olfactory receptor family 5 subfamily K member 3) | 2 | 39.2 | 50.3 | inactive |
| Or5k3 (olfactory receptor family 5 subfamily K member 3) | 3 | 103 | 91.6 | inactive |
| Cyp3a44 (cytochrome P450, family 3, subfamily a, polypeptide 44) | 1 | 11.5 | 12.4 | inactive |
| Cyp3a44 (cytochrome P450, family 3, subfamily a, polypeptide 44) | 2 | 66.1 | 75.3 | inactive |
| Cyp3a44 (cytochrome P450, family 3, subfamily a, polypeptide 44) | 3 | 64.8 | 60.7 | inactive |
| Or8b44 (olfactory receptor family 8 subfamily B member 44) | 1 | 87.2 | 78.8 | inactive |
| Or8b44 (olfactory receptor family 8 subfamily B member 44) | 2 | 54.3 | 30.1 | inactive |
| Or8b44 (olfactory receptor family 8 subfamily B member 44) | 3 | 95.9 | 112 | inactive |

Continued (15 carried over from the part before).
| gene symbol | siRNA no. | GFP, % of control | viability (ATP), % of control | call |
| --- | --- | --- | --- | --- |
| Hapln1 (hyaluronan and proteoglycan link protein 1) | 2 | 74.4 | 48 | inactive |
| Hapln1 (hyaluronan and proteoglycan link protein 1) | 3 | 59.3 | 68.4 | inactive |
| D8Ertd738e (DNA segment, Chr 8, ERATO Doi 738, expressed) | 1 | 77 | 82.9 | inactive |
| D8Ertd738e (DNA segment, Chr 8, ERATO Doi 738, expressed) | 2 | 145 | 109 | active |
| D8Ertd738e (DNA segment, Chr 8, ERATO Doi 738, expressed) | 3 | 136 | 89.7 | active |
| Prkaa2 (protein kinase, AMP-activated, alpha 2 catalytic subunit) | 1 | 124 | 64.1 | active |
| Or5k3 (olfactory receptor family 5 subfamily K member 3) | 1 | 79.9 | 72.8 | inactive |
| Or5k3 (olfactory receptor family 5 subfamily K member 3) | 2 | 39.2 | 50.3 | inactive |
| Or5k3 (olfactory receptor family 5 subfamily K member 3) | 3 | 103 | 91.6 | inactive |
| Cyp3a44 (cytochrome P450, family 3, subfamily a, polypeptide 44) | 1 | 11.5 | 12.4 | inactive |
| Cyp3a44 (cytochrome P450, family 3, subfamily a, polypeptide 44) | 2 | 66.1 | 75.3 | inactive |
| Cyp3a44 (cytochrome P450, family 3, subfamily a, polypeptide 44) | 3 | 64.8 | 60.7 | inactive |
| Or8b44 (olfactory receptor family 8 subfamily B member 44) | 1 | 87.2 | 78.8 | inactive |
| Or8b44 (olfactory receptor family 8 subfamily B member 44) | 2 | 54.3 | 30.1 | inactive |
| Or8b44 (olfactory receptor family 8 subfamily B member 44) | 3 | 95.9 | 112 | inactive |
| Mrps27 (mitochondrial ribosomal protein S27) | 1 | 103 | 71.4 | inactive |
| Mrps27 (mitochondrial ribosomal protein S27) | 2 | 99.1 | 90.6 | inactive |
| Mrps27 (mitochondrial ribosomal protein S27) | 3 | 86.5 | 66.4 | inactive |
| Fev (FEV transcription factor, ETS family member) | 1 | 46.6 | 69.8 | inactive |
| Fev (FEV transcription factor, ETS family member) | 2 | 67.4 | 83.6 | inactive |
| Fev (FEV transcription factor, ETS family member) | 3 | 56.6 | 45.2 | inactive |
| Or8d6 (olfactory receptor family 8 subfamily D member 6) | 1 | 97.1 | 42.3 | inactive |
| Or8d6 (olfactory receptor family 8 subfamily D member 6) | 2 | 93.7 | 53.2 | inactive |
| Or8d6 (olfactory receptor family 8 subfamily D member 6) | 3 | 53.3 | 55.5 | inactive |
| Cst6 (cystatin E/M) | 1 | 66.8 | 70.6 | inactive |
| Cst6 (cystatin E/M) | 2 | 67.4 | 60.4 | inactive |
| Cst6 (cystatin E/M) | 3 | 85.9 | 66 | inactive |
| Otp (orthopedia homeobox) | 1 | 108 | 57.7 | inactive |
| Otp (orthopedia homeobox) | 2 | 74 | 79.9 | inactive |
| Gstm6 (glutathione S-transferase, mu 6) | 1 | 185 | 111 | active |
| Gstm6 (glutathione S-transferase, mu 6) | 2 | 82.8 | 100 | inactive |
| Gstm6 (glutathione S-transferase, mu 6) | 3 | 50 | 55.2 | inactive |
| Or10ak8 (olfactory receptor family 10 subfamily AK member 8) | 1 | 54.8 | 69 | inactive |
| Or10ak8 (olfactory receptor family 10 subfamily AK member 8) | 2 | 91.3 | 80.9 | inactive |
| Or10ak8 (olfactory receptor family 10 subfamily AK member 8) | 3 | 61.8 | 67.2 | inactive |
| Tnfsf13b (tumor necrosis factor (ligand) superfamily, member 13b) | 1 | 85.1 | 90.4 | inactive |
| Tnfsf13b (tumor necrosis factor (ligand) superfamily, member 13b) | 2 | 63.6 | 72.1 | inactive |
| Tnfsf13b (tumor necrosis factor (ligand) superfamily, member 13b) | 3 | 140 | 101 | active |
| Nudt3 (nudix hydrolase 3) | 1 | 93.1 | 85.6 | inactive |
| Nudt3 (nudix hydrolase 3) | 2 | 75.7 | 79.7 | inactive |
| Nudt3 (nudix hydrolase 3) | 3 | 87.6 | 87.9 | inactive |
| Emc3 (ER membrane protein complex subunit 3) | 1 | 100 | 105 | inactive |
| Emc3 (ER membrane protein complex subunit 3) | 2 | 63.4 | 84.8 | inactive |
| Emc3 (ER membrane protein complex subunit 3) | 3 | 106 | 108 | inactive |
| Myh11 (myosin, heavy polypeptide 11, smooth muscle) | 1 | 82.4 | 76.1 | inactive |
| Myh11 (myosin, heavy polypeptide 11, smooth muscle) | 2 | 99.4 | 113 | inactive |
| Aida (axin interactor, dorsalization associated) | 1 | 91.2 | 97 | inactive |
| Aida (axin interactor, dorsalization associated) | 2 | 44.7 | 52.5 | inactive |
| Aida (axin interactor, dorsalization associated) | 3 | 85.8 | 82.4 | inactive |
| Sdcbp (syndecan binding protein) | 1 | 63.7 | 42.6 | inactive |
| Sdcbp (syndecan binding protein) | 2 | 57.6 | 45.7 | inactive |
| Sdcbp (syndecan binding protein) | 3 | 47.5 | 37.8 | inactive |
| Nkain1 (Na+/K+ transporting ATPase interacting 1) | 1 | 82.3 | 77.7 | inactive |
| Nkain1 (Na+/K+ transporting ATPase interacting 1) | 2 | 88.9 | 76.9 | inactive |
| Nkain1 (Na+/K+ transporting ATPase interacting 1) | 3 | 99.6 | 78.6 | inactive |
| Gm5089 (predicted gene 5089) | 1 | 110 | 79.5 | inactive |
| Gm5089 (predicted gene 5089) | 2 | 121 | 94.3 | active |
| Gm5089 (predicted gene 5089) | 3 | 99.9 | 75.8 | inactive |
| Wdr33 (WD repeat domain 33) | 1 | 115 | 57.2 | inactive |
| Wdr33 (WD repeat domain 33) | 2 | 70.8 | 84 | inactive |
| Wdr33 (WD repeat domain 33) | 3 | 81.5 | 61.6 | inactive |
| Ern1 (endoplasmic reticulum to nucleus signalling 1) | 1 | 75.1 | 57.6 | inactive |
| Cdk6 (cyclin dependent kinase 6) | 1 | 78.6 | 74.7 | inactive |
| Pcdha11 (protocadherin alpha 11) | 1 | 71 | 75.2 | inactive |
| Pcdha11 (protocadherin alpha 11) | 2 | 78.4 | 82.3 | inactive |
| Pcdha11 (protocadherin alpha 11) | 3 | 57.3 | 87.9 | inactive |
| Cd83 (CD83 antigen) | 1 | 60.2 | 62.4 | inactive |
| Cd83 (CD83 antigen) | 2 | 67.3 | 63.2 | inactive |
| Cd83 (CD83 antigen) | 3 | 75.9 | 105 | inactive |
| Capstert (catsper channel auxiliary subunit tau) | 1 | 72.3 | 49.1 | inactive |
| Capstert (catsper channel auxiliary subunit tau) | 2 | 59.5 | 48.3 | inactive |
| Capstert (catsper channel auxiliary subunit tau) | 3 | 70.4 | 90.5 | inactive |
| Atl3 (atlastin GTPase 3) | 1 | 139 | 93.3 | active |
| Atl3 (atlastin GTPase 3) | 2 | 57 | 71.8 | inactive |
| Atl3 (atlastin GTPase 3) | 3 | 69.9 | 68.7 | inactive |
| P2rx5 (purinergic receptor P2X, ligand-gated ion channel, 5) | 1 | 68.9 | 68.6 | inactive |
| P2rx5 (purinergic receptor P2X, ligand-gated ion channel, 5) | 2 | 105 | 60.2 | inactive |
| P2rx5 (purinergic receptor P2X, ligand-gated ion channel, 5) | 3 | 19.2 | 19.4 | inactive |
| Prtn3 (proteinase 3) | 1 | 132 | 59.3 | active |
| Prtn3 (proteinase 3) | 2 | 75.9 | 65.4 | inactive |
| Prtn3 (proteinase 3) | 3 | 118 | 80.1 | inactive |
| Irak4 (interleukin-1 receptor-associated kinase 4) | 1 | 35.1 | 32.9 | inactive |
| Fgf17 (fibroblast growth factor 17) | 1 | 74.8 | 75.5 | inactive |
| Fgf17 (fibroblast growth factor 17) | 2 | 80.6 | 82.4 | inactive |
| Fgf17 (fibroblast growth factor 17) | 3 | 66.4 | 66.8 | inactive |
